In article PMC6274713:
The comparison behind a weaker result is the experiment's own reference, which may not be listed here. Protein sequences can lack the tags named with them.

What was measured:
[1] = molecular target: T1, MLL4 3500-3630 (UniProt O14686); assay: MST; details: no saturation, stronger than MLL4 4210-4280; recombinant protein; residues 3500-3630; protein details: His tag (implied by HisTrap, pET22b); label: biotin (EMSA), fluorescent (MST)
T1 sequence (looked up): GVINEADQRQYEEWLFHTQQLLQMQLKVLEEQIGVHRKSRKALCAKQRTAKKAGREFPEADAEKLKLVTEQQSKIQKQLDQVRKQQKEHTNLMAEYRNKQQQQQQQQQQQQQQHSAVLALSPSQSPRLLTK

[2] = molecular target: T2, MLL4 4210-4280 (UniProt O14686); assay: MST; details: no saturation; recombinant protein; residues 4210-4280; protein details: His tag (implied by HisTrap, pET22b); label: biotin (EMSA), fluorescent (MST)
T2 sequence (looked up): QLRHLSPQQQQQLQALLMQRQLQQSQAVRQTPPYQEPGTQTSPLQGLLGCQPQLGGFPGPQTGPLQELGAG

[3] = molecular target: T1, MLL4 3500-3630; assay: EMSA; details: minor loss of RNA signal at highest protein; EMSA: LightShift RNA EMSA kit protocol, 1 or 2 nM RNA, 30 min at room temperature, 4 or 6% native PAGE; recombinant protein; residues 3500-3630; protein details: His tag (implied by HisTrap, pET22b); label: biotin (EMSA), fluorescent (MST)
[4] = molecular target: T2, MLL4 4210-4280; assay: EMSA; details: minor loss of RNA signal at highest protein; EMSA: LightShift RNA EMSA kit protocol, 1 or 2 nM RNA, 30 min at room temperature, 4 or 6% native PAGE; recombinant protein; residues 4210-4280; protein details: His tag (implied by HisTrap, pET22b); label: biotin (EMSA), fluorescent (MST)

Measured: binding result

GAAGAAUGGCCUCGCGGAGGCAUGCGUCAUGCUAGCGUGCGGGGUACUCUU [50 nt RNA]
binds more weakly: all assays above
